# Measured values: the supplement of paper PMC10849652
# Protein sequences, listed by entry. Tags and fused reporters are not part of them. Lines headed by an entry give the natural chain unless they say otherwise; changes in a name come on top.
# UniProt Q9NTX5: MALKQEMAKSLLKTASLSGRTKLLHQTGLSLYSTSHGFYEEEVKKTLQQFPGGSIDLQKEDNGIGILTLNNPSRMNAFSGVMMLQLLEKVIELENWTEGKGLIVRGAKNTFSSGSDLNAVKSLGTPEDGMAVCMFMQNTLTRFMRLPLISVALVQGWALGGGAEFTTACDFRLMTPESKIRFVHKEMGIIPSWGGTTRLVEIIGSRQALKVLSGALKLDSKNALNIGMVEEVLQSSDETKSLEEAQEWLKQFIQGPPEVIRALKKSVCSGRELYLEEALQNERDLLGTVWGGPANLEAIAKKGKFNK
# UniProt Q9BVC3, whole entry, looked up: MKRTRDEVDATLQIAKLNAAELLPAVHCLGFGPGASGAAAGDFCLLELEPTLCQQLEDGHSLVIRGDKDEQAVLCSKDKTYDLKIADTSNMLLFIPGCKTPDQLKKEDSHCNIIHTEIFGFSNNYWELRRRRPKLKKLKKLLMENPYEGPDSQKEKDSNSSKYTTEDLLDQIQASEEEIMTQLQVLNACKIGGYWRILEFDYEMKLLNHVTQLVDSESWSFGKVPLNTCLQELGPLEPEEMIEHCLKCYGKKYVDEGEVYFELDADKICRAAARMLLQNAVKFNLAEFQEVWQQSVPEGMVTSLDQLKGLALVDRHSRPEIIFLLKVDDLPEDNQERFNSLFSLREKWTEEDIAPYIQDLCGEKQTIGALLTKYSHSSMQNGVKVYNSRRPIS
# UniProt Q15125: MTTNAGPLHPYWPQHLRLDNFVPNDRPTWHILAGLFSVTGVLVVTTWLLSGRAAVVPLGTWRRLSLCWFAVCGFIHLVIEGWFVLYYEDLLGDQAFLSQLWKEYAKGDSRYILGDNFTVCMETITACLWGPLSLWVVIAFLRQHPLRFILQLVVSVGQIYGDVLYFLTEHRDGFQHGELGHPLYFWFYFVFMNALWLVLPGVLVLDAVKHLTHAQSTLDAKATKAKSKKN
# UniProt Q9Y6G9, whole entry, looked up: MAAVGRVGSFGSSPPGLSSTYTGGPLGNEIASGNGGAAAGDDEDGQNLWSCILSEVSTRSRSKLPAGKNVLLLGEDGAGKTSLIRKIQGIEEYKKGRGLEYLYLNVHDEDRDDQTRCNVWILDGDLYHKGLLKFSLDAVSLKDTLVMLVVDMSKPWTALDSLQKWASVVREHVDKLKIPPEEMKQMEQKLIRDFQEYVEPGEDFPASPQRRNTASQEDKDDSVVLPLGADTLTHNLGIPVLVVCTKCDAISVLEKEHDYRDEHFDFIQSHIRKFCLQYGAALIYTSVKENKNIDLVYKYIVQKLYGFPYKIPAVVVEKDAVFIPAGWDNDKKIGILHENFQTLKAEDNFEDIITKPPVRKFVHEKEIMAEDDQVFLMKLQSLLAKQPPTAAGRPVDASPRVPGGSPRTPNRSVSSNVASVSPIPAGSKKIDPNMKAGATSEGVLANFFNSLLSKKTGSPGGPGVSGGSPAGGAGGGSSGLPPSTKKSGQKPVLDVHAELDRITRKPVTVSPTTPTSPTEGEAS
# UniProt O00716: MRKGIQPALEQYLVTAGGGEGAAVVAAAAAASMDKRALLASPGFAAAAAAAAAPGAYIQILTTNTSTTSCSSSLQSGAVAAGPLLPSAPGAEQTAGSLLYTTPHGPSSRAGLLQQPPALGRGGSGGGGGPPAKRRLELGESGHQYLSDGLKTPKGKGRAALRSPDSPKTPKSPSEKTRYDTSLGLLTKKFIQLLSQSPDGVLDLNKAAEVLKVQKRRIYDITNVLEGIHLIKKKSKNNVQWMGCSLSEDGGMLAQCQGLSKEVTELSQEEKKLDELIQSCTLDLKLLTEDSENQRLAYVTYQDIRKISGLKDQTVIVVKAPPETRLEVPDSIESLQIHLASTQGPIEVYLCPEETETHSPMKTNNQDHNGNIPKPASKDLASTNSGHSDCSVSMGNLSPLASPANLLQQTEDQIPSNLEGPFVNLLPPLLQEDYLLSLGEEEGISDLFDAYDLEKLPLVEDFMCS
# UniProt Q9H2P9: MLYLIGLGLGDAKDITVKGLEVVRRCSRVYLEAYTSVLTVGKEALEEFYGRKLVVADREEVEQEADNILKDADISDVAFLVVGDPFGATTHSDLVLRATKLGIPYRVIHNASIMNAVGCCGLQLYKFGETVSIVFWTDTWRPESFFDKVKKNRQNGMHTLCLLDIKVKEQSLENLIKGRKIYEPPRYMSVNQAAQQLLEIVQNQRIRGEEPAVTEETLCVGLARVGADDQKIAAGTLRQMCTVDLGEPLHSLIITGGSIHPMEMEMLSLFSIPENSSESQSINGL
# UniProt Q99848: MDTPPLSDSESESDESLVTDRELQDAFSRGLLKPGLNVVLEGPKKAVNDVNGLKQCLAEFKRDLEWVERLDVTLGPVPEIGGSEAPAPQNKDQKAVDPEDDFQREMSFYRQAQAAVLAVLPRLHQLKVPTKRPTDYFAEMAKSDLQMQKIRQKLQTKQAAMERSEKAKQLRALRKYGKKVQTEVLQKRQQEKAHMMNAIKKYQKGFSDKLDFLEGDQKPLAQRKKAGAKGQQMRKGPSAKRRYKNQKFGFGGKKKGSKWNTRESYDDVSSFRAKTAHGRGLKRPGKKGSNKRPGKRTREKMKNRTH
# UniProt Q16610: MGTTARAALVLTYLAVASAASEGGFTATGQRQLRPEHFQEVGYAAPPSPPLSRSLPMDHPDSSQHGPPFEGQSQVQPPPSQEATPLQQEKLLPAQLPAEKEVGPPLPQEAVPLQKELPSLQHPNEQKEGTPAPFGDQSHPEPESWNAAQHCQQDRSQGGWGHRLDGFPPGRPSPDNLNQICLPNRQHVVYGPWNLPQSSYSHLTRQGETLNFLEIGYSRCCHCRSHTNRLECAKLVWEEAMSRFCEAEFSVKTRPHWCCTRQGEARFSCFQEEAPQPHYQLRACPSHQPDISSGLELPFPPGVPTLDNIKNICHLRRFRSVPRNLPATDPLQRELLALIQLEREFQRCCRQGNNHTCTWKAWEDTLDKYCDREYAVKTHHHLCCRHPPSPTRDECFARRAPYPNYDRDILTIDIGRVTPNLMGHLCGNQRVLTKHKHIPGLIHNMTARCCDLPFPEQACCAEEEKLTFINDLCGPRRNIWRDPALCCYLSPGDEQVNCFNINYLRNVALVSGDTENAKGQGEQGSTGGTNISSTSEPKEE
# UniProt Q13011: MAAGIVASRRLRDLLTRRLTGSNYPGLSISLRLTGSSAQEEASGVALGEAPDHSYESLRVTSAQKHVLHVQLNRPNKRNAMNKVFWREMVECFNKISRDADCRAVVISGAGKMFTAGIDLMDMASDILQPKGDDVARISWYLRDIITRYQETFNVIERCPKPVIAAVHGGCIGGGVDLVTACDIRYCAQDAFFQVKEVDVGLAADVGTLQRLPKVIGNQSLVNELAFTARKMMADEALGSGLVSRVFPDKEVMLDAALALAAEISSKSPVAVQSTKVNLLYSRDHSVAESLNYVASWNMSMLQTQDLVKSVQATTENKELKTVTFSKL
# UniProt Q92785, whole entry, looked up: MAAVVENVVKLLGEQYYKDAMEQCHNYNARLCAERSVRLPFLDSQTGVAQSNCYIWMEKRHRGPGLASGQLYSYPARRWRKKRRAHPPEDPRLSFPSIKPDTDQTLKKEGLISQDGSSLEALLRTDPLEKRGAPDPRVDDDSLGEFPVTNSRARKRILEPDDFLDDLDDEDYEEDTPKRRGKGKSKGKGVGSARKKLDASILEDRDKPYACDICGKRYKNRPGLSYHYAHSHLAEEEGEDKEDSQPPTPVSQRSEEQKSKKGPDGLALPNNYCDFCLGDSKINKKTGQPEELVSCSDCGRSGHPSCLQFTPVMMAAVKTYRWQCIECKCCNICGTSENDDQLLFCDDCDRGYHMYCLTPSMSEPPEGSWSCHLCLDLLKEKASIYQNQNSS
# UniProt Q9BQ95: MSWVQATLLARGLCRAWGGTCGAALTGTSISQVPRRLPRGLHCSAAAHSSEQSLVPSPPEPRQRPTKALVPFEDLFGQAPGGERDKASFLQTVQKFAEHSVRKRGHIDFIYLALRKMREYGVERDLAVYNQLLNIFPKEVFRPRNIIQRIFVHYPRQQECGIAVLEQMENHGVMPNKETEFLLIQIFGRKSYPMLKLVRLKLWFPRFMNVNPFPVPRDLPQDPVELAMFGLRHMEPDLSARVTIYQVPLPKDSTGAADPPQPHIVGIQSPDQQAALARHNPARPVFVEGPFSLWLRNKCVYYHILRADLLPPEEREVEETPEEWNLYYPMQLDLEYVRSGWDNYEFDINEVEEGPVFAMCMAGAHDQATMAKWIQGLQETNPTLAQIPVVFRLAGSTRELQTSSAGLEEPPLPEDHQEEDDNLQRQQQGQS
# UniProt O75521: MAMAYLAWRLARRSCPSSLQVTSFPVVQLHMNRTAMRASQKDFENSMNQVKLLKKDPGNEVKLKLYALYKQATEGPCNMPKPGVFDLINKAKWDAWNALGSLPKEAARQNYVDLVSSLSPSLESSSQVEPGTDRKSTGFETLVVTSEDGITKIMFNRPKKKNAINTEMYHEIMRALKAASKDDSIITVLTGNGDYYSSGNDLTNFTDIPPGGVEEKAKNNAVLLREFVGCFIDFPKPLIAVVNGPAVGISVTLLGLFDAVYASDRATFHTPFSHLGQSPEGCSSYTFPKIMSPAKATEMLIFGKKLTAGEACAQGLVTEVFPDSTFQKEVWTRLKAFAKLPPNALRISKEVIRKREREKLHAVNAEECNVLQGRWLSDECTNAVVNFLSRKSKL
# UniProt Q9GZT9: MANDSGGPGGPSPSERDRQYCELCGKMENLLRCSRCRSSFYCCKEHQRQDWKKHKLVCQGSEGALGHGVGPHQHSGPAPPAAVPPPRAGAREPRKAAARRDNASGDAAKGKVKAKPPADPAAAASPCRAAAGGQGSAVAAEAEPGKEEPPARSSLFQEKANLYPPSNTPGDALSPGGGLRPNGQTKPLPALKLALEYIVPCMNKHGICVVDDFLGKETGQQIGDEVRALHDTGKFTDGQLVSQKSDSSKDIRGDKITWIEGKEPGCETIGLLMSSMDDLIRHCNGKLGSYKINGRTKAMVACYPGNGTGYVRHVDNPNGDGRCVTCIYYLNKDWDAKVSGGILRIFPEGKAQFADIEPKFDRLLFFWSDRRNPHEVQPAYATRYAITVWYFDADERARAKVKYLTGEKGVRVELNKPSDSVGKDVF
# UniProt P51452: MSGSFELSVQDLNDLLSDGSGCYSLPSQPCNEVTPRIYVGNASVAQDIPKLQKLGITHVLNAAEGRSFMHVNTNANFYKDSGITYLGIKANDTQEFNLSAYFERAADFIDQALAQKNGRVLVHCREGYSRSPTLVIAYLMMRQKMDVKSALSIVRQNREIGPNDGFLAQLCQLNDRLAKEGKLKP
# UniProt Q96C19: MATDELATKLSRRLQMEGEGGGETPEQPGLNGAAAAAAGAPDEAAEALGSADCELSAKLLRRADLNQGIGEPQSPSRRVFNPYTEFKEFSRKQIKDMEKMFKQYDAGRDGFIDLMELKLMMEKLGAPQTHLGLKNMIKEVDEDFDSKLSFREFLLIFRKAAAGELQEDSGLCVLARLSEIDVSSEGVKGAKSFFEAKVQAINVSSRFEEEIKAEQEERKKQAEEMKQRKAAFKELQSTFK
# UniProt Q96G46: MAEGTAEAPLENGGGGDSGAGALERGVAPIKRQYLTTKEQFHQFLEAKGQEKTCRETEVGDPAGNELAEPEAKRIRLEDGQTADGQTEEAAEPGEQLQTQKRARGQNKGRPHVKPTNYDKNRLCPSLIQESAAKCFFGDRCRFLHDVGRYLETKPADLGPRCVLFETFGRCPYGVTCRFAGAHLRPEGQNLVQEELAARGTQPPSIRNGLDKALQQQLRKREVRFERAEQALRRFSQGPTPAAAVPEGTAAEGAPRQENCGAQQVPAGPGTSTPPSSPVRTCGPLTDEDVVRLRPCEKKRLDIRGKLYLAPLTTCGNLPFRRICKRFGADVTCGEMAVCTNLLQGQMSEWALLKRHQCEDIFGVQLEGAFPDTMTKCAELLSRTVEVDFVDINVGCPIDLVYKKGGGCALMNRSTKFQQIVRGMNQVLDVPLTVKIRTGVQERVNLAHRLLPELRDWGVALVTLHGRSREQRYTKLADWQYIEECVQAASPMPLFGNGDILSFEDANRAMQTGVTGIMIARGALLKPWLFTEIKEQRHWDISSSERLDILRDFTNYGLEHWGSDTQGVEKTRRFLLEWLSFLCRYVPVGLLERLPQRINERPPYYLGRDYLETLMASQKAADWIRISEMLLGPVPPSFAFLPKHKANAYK
# UniProt Q9UNI6, whole entry, looked up: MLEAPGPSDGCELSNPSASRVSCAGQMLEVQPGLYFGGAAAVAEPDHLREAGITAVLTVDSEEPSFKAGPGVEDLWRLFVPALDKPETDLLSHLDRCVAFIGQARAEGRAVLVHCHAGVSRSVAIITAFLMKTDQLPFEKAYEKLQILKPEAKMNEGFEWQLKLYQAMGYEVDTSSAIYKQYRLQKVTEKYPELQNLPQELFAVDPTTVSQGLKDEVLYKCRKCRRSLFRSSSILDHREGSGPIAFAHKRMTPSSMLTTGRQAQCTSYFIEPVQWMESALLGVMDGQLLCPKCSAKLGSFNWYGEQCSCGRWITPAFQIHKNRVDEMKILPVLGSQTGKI
# The other results are listed elsewhere or left out.
# How the values were obtained:
# Assay in all cases: log2 fold change, soluble protein after heating vs DMSO (PISA); higher = thermal stabilisation; K562 lysate, 10 uM; active = over 0.2 and 3.5 SD of the protein, either way, in both replicates (recomputed)
# vemurafenib = compound: CCCS(=O)(=O)Nc1ccc(F)c(C(=O)c2c[nH]c3ncc(-c4ccc(Cl)cc4)cc23)c1F [vemurafenib]
# How it was run: (§1)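 Pellets of K562 cells were dounce-homogenised in PBS pH 7.4 with 1 mM MgCl2, and the crude extract was held at 1 mg/mL protein for a 30 min treatment with 10 μM compound. Aliquots were heated for 3 min over 48°C-58°C and pooled before NP-40 was added to 0.5% at 4°C. The supernatant from 21,000xg for 90 min was quantified by TMTpro 16plex LC-MS/MS with channel sums equalised. Values are reported from duplicates as log-two fold change in thermal stability relative to solvent controls.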
# [1] = compound: CCCS(=O)(=O)Nc1ccc(F)c(C(=O)c2c[nH]c3ncc(Cl)cc23)c1F
# How it was run: as §1
# barasertib = compound: CCN(CCCOc1ccc2c(Nc3cc(CC(=O)Nc4cccc(F)c4)[nH]n3)ncnc2c1)CCOP(=O)(O)O [barasertib]
# How it was run: as §1
# [2] = compound: CC[C@@H]1C(=O)N(C)c2cnc(Nc3ccc(C(=O)NC4CCN(C)CC4)cc3OC)nc2N1C1CCCC1
# How it was run: as §1
# volasertib = compound: CC[C@@H]1C(=O)N(C)c2cnc(Nc3ccc(C(=O)N[C@H]4CC[C@H](N5CCN(CC6CC6)CC5)CC4)cc3OC)nc2N1C(C)C [volasertib]
# How it was run: as §1
# [3] = compound: CCn1c(C(=O)N(C2CC2)C2CC2)cc2c3c(ncn3C)c(Nc3cc(C)n(C)n3)nc21
# How it was run: as §1
# [4] = compound: CCn1cc(-c2ccnc3[nH]c(-c4cccc(CN(C)C)c4)cc23)c(-c2ccc(NC(=O)N(C)C)cc2)n1
# How it was run: as §1
# [5] = compound: CN1CCC(CNc2ccc3ncc(-c4cccc(OC(F)(F)F)c4)n3n2)CC1
# How it was run: as §1
# saracatinib = compound: CN1CCN(CCOc2cc(OC3CCOCC3)c3c(Nc4c(Cl)ccc5c4OCO5)ncnc3c2)CC1 [saracatinib]
# How it was run: as §1
# sotrastaurin = compound: CN1CCN(c2nc(C3=C(c4c[nH]c5ccccc45)C(=O)NC3=O)c3ccccc3n2)CC1 [sotrastaurin]
# How it was run: as §1
Target,log2 fold change (vemurafenib),log2 fold change [1],log2 fold change (barasertib),log2 fold change [2],log2 fold change (volasertib),log2 fold change [3],log2 fold change [4],log2 fold change [5],log2 fold change (saracatinib),log2 fold change (sotrastaurin)
DYNC2H1 isoform 2 (UniProt Q8NCM8),inactive: -0.049,inactive: 0.005,inactive: 0.28,inactive: -0.076,inactive: -0.013,inactive: -0.11,inactive: 0.025,inactive: -0.002,inactive: -0.131,
ECHDC1 (UniProt Q9NTX5),inactive: 0.011,inactive: -0.001,inactive: 0.004,inactive: -0.037,inactive: 0.022,inactive: 0.054,inactive: -0.009,inactive: 0.055,inactive: 0.024,inactive: 0.009
DSCC1 (UniProt Q9BVC3),inactive: 0.021,inactive: 0.067,inactive: -0.061,inactive: -0.025,inactive: -0.062,inactive: -0.054,inactive: -0.084,inactive: -0.018,inactive: -0.005,inactive: 0.036
EBP (UniProt Q15125),inactive: 0.056,inactive: 0.024,inactive: 0.069,inactive: 0.071,inactive: 0.038,inactive: -0.024,inactive: -0.354,inactive: 0.044,inactive: 0.135,inactive: -0.103
EHD4 (UniProt Q9H223),inactive: 0.037,inactive: -0.022,inactive: 0.033,inactive: -0.02,inactive: -0.094,inactive: 0.036,inactive: -0.067,inactive: -0.034,inactive: 0.006,inactive: 0.019
DVL2 (UniProt O14641),inactive: 0.067,inactive: -0.172,inactive: 0.119,inactive: -0.033,inactive: 0,inactive: 0.007,inactive: 0.011,inactive: -0.003,inactive: 0.018,inactive: -0.055
EGFL7 (UniProt Q9UHF1),inactive: 0.092,,,,,,,,,
DYNC1LI1 (UniProt Q9Y6G9),inactive: 0.029,inactive: 0,inactive: -0.004,inactive: 0.003,inactive: -0.03,inactive: 0.001,inactive: -0.048,inactive: 0.016,inactive: 0.002,inactive: 0.001
DUS2 (UniProt Q9NX74),inactive: 0.022,inactive: 0.032,inactive: -0.026,inactive: -0.033,inactive: -0.071,inactive: -0.016,inactive: -0.095,inactive: 0.023,inactive: -0.095,inactive: -0.017
E2F3 (UniProt O00716),inactive: 0.077,inactive: -0.043,inactive: 0.033,inactive: 0.15,inactive: 0.082,inactive: 0.015,inactive: -0.037,inactive: -0.091,inactive: 0.032,inactive: -0.016
DPH5 isoform 5 (UniProt Q9H2P9),inactive: 0.144,inactive: 0.016,inactive: -0.05,inactive: 0.16,inactive: 0.273,inactive: -0.011,inactive: 0.182,inactive: 0.033,inactive: -0.029,inactive: 0.049
EBNA1BP2 (UniProt Q99848),inactive: -0.014,inactive: 0.011,inactive: -0.005,inactive: 0.023,inactive: -0.02,inactive: -0.006,inactive: -0.038,inactive: -0.001,inactive: 0.017,inactive: -0.018
ECM1 isoform 4 (UniProt Q16610),inactive: 0.005,inactive: 0.003,inactive: -0.054,inactive: 0.121,inactive: -0.014,inactive: -0.037,inactive: 0.018,inactive: 0.074,inactive: 0.035,inactive: 0.024
ECH1 (UniProt Q13011),inactive: -0.003,inactive: -0.025,inactive: -0.008,inactive: -0.019,inactive: 0.041,inactive: -0.007,inactive: -0.07,active: 0.348,inactive: -0.047,active: 0.608
DPF2 (UniProt Q92785),inactive: 0.039,inactive: 0.049,inactive: 0.025,inactive: -0.037,inactive: 0.013,inactive: 0.006,inactive: 0.042,inactive: -0.045,inactive: 0.024,inactive: -0.018
"EED, A0A5F9ZI63",inactive: -0.019,inactive: 0.034,inactive: -0.029,inactive: 0.005,inactive: 0.015,inactive: -0.012,inactive: -0.047,inactive: 0.049,inactive: 0.026,inactive: 0.031

Target,log2 fold change (vemurafenib),log2 fold change [1],log2 fold change (barasertib),log2 fold change [2],log2 fold change (volasertib),log2 fold change [3],log2 fold change [4],log2 fold change [5],log2 fold change (saracatinib),log2 fold change (sotrastaurin)
ECSIT (UniProt Q9BQ95),inactive: -0.027,inactive: 0.014,inactive: -0.008,inactive: -0.006,inactive: 0.004,inactive: 0.02,inactive: -0.026,inactive: 0.013,inactive: -0.006,inactive: 0.047
ECI2 (UniProt O75521),inactive: 0.071,inactive: 0.013,inactive: 0.007,inactive: 0.059,inactive: -0.013,inactive: 0.004,inactive: -0.021,inactive: -0.017,inactive: -0.003,inactive: -0.045
DUT (UniProt P33316),inactive: 0.032,inactive: 0,inactive: -0.086,inactive: 0.031,inactive: 0.026,inactive: -0.028,inactive: -0.088,inactive: 0.067,inactive: -0.018,inactive: -0.034
EGLN1 (UniProt Q9GZT9),inactive: -0.052,inactive: -0.041,inactive: -0.025,inactive: -0.078,inactive: -0.076,inactive: 0.007,inactive: 0.019,inactive: -0.001,inactive: 0.029,inactive: 0.034
EHMT2 (UniProt A2ABF8),inactive: -0.026,inactive: -0.001,inactive: 0.066,inactive: -0.072,inactive: -0.056,inactive: 0.02,inactive: -0.026,inactive: 0.042,inactive: 0.012,inactive: 0.027
EBAG9 isoform 2 (UniProt O00559),inactive: -0.031,inactive: 0.04,inactive: 0.018,inactive: 0.09,inactive: 0.043,inactive: -0.065,inactive: -0.098,inactive: 0.181,inactive: 0.12,inactive: -0.026
DYNC1H1 (UniProt Q14204),inactive: -0.005,inactive: 0.008,inactive: 0.016,inactive: -0.032,inactive: -0.053,inactive: 0.028,inactive: -0.011,inactive: -0.022,inactive: -0.002,inactive: 0.008
DUSP3 (UniProt P51452),inactive: 0.004,inactive: 0.022,inactive: 0.031,inactive: -0.005,inactive: 0.013,inactive: 0.027,inactive: -0.044,inactive: -0.005,inactive: 0.009,inactive: -0.008
"EEF1A1, A0A087WVQ9",inactive: 0.011,inactive: 0.047,inactive: -0.069,inactive: 0.027,inactive: -0.003,inactive: -0.026,inactive: -0.016,inactive: -0.12,inactive: 0.077,inactive: 0.013
EFHD2 (UniProt Q96C19),inactive: -0.016,inactive: -0.013,inactive: -0.021,inactive: 0.039,inactive: 0.033,inactive: -0.025,inactive: -0.095,inactive: 0.065,inactive: -0.01,inactive: 0.007
DUS3L (UniProt Q96G46),inactive: -0.055,inactive: 0.004,inactive: -0.038,inactive: -0.025,inactive: 0.005,inactive: -0.043,active: 0.246,inactive: -0.048,inactive: 0.021,inactive: 0.033
DUSP12 (UniProt Q9UNI6),inactive: 0.029,inactive: 0.02,inactive: -0.017,inactive: -0.033,inactive: -0.014,inactive: 0.011,inactive: -0.041,inactive: 0.038,inactive: -0.005,inactive: 0.009
DROSHA (UniProt Q9NRR4),inactive: -0.065,inactive: 0.095,inactive: 0.089,inactive: -0.066,inactive: -0.057,inactive: 0.034,inactive: 0.06,inactive: -0.091,inactive: 0.022,inactive: 0.125
DPH2 (UniProt Q9BQC3),inactive: -0.008,inactive: 0.019,inactive: -0.01,inactive: 0.012,inactive: 0,inactive: 0.013,inactive: 0.018,inactive: 0.018,inactive: -0.01,inactive: -0.017
ECHDC3 (UniProt Q96DC8),inactive: 0.163,inactive: -0.004,inactive: -0.086,inactive: -0.02,inactive: 0.022,inactive: -0.034,inactive: -0.026,inactive: -0.006,inactive: -0.027,inactive: 0.006

# Shown as tab-separated lines: part of the list above
Target	log2 fold change (vemurafenib)	log2 fold change [1]	log2 fold change (barasertib)	log2 fold change [2]	log2 fold change (volasertib)	log2 fold change [3]	log2 fold change [4]	log2 fold change [5]	log2 fold change (saracatinib)	log2 fold change (sotrastaurin)
DUSP12 (UniProt Q9UNI6)	inactive: 0.029	inactive: 0.02	inactive: -0.017	inactive: -0.033	inactive: -0.014	inactive: 0.011	inactive: -0.041	inactive: 0.038	inactive: -0.005	inactive: 0.009
DROSHA (UniProt Q9NRR4)	inactive: -0.065	inactive: 0.095	inactive: 0.089	inactive: -0.066	inactive: -0.057	inactive: 0.034	inactive: 0.06	inactive: -0.091	inactive: 0.022	inactive: 0.125
